# Experimental data taken from publication doi:10.1101/413997.
# These are yes or no findings as the source states them, for the method shown. Binding can be weak; no strength is given. Sequences can lack the tags named with a protein. For some assays here: In cells and extracts the contact can be indirect.
# Experiments:
# GFP::EB1 = molecular target: T1, GFP::EB1 (UniProt Q9XZ57); experiment: co-IP
# T1 sequence: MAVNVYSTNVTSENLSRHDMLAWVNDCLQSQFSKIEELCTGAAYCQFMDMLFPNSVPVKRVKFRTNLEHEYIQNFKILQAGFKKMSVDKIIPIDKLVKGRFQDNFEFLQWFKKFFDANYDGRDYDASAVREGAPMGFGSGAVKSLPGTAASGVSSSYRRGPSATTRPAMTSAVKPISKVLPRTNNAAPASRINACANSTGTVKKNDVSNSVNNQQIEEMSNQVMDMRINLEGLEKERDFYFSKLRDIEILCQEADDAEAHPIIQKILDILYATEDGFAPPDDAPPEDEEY
# [1] = molecular target: T2, EB1, yeast two-hybrid fusion (UniProt Q9XZ57); experiment: two-hybrid
# T2 sequence: T1 sequence
substance,measurement,setting,value
Flag::FIP (Drosophila melanogaster),binding,GFP::EB1,binds
"FIP^439-657, yeast two-hybrid fusion (Drosophila melanogaster) (domain or fragment)",binding,[1],binds
